# Assay results taken from article PMC10123543.
# The chains behind the UniProt entries cited, without tags or fusion partners.
# UniProt P22366: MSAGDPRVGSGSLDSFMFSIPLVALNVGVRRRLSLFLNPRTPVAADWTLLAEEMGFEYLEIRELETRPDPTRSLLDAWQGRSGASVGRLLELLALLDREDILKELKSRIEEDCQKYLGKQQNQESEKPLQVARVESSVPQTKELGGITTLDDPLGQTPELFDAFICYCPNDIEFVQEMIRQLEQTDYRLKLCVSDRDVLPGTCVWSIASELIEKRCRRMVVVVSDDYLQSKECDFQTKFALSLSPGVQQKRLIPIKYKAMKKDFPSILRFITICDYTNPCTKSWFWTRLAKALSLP
# Results are given in words; binding and its absence hold for the method and conditions named. Binding seen in cells or lysates may run through a third protein. Some binding calls cover weakened binding; strength is not graded here.
# Biological target: T1, ovarian tumor family deubiquitinase 4 (OTUD4) (mouse (endogenous in IECs of C57BL/6 mice)) (UniProt B2RRE7)
# T1 sequence: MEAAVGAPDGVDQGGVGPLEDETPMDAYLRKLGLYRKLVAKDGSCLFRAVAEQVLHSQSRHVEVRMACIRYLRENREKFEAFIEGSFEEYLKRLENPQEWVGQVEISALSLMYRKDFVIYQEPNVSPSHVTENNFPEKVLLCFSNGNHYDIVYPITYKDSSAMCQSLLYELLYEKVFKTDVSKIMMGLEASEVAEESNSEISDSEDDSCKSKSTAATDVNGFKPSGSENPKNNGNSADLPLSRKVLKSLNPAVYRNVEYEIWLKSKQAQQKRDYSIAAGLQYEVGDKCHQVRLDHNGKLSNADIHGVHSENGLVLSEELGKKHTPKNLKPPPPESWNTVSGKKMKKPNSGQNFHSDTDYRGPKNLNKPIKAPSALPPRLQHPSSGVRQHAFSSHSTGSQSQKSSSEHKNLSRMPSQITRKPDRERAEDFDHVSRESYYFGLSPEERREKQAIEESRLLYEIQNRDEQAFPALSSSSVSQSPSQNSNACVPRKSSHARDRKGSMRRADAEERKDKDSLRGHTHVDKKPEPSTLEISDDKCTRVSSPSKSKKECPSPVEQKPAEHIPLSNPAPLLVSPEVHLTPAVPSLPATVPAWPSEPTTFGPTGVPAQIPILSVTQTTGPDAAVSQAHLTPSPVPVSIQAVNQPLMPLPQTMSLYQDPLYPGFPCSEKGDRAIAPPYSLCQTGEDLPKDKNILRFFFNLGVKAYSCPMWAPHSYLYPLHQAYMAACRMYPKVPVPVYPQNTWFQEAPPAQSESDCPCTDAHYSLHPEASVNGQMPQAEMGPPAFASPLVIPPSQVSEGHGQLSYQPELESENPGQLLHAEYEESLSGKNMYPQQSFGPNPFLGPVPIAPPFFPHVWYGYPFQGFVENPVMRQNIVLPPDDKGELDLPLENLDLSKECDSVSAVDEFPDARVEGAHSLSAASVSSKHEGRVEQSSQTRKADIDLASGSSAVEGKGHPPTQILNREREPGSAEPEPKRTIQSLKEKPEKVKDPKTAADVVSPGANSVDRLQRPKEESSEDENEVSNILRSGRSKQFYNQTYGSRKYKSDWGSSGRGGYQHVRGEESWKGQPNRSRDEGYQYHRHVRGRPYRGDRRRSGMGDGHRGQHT
# Test: co-IP; whole-cell extract (NP-40 lysis buffer: 150 mM NaCl, 1 mM EDTA, 1% nonidet P-40) of IECs from wild-type C57BL/6 mice incubated with control IgG or anti-OTUD4 and protein G agarose overnight; washed three times; immunoblot
substance,measurement,value
MyD88 (from UniProt P22366 1-296),binding,binds
